# According to PubChem BioAssay AID595 (National Center for Advancing Translational Sciences (NCATS), 2007):
# Among all 71,000 compounds or so, about 310 (0.44%) were called active. This list was built around the results that the source calls inconclusive (neither active nor inactive); the mix of calls is not that of the screen. Calls come from the whole dose curve; as a rule, active = well fitted curve in either direction with a large enough effect; inconclusive = small, poorly fitted or top-dose-only effect, or another doubt; inactive = flat fitted curve, though single readings scatter. Where the call is inconclusive, the potency comes from a doubtful curve fit.
# Test system: Hsp90 C-terminal peptide / TPR2A (Hop) interaction, human
# Assay: qHTS Assay for Disrupters of an Hsp90 Co-Chaperone Interaction
# Details: AlphaScreen TPR2A-His6 binding biotin-Hsp90 C-terminal peptide; activity change, negative = inhibition: at 57 µM (top of the series) unless noted
# % is set by controls: 0 for no effect and ±100 for the full control effect; potency is the fitted concentration of half-maximal effect.
Structure (SMILES),"activity change, negative = inhibition",Potency
CSC1=Nc2sc3c(c2C2=NCCN12)CCCC3,inactive,
C[C@@]1(C(=O)O)NCCc2cc(O)c(O)cc21,,"inconclusive: 31.6 µM [inhibitor, single point]"
COc1ccc(CCNC(=O)CSCc2n[nH]c(=O)[nH]2)cc1OC,inconclusive: 56.7%,
Cc1nn2c(c1-c1ccccc1)N=C(c1ccco1)CC2c1ccccc1 (stereo not given),,"inconclusive: 39.8 µM [inhibitor, single point]"
NC(=O)c1ncn([C@@H]2O[C@@H](CO)[C@@H](O)[C@H]2O)n1,inactive,
COc1cccc2c1OC1(C)CC2/C(=C(\C)O)C(=O)N1 (stereo not given),inconclusive: 56.4%,
CN[C@@H]1[C@H](O)[C@H](NC)[C@@H]2O[C@]3(O)C(=O)C[C@@H](C)O[C@H]3O[C@@H]2[C@H]1O,inconclusive: 62.6%,
COc1cc(C2NC(=O)NC(O)(C(F)(F)F)C2C(=O)c2ccc(Cl)cc2)ccc1O (stereo not given),inconclusive: 30%,
COc1ccc(N2CCN(Cc3nc(N)nc(Nc4ccccc4OC)n3)CC2)cc1,,"inconclusive: 39.8 µM [inhibitor, single point]"
COc1cc(C2C(C(=O)OC(C)C)=C(C)Nc3[nH]c(=O)[nH]c(=O)c32)ccc1O (stereo not given),inconclusive: 40.5%,
CC(=O)c1c(O)cc(C)n(Nc2nc(C)cc(C)n2)c1=O,,"inconclusive: 31.6 µM [inhibitor, single point]"
Cc1cc(C)c(/C=C2/C(=O)Nc3ccccc32)[nH]1,,"inconclusive: 25.1 µM [inhibitor, partial curve]"
CC(=O)Nc1nonc1NC(=O)CSc1nc2ccccc2o1,,"inconclusive: 25.1 µM [inhibitor, single point]"
c1ccc(OCCSc2nc3ccccc3o2)cc1,,"inconclusive: 31.6 µM [activator, single point]"
Cc1ccc(NC(=O)C2CCN(S(=O)(=O)c3cnc[nH]3)CC2)nc1,inconclusive: 43%,
COc1cccc(C2=CC(c3ccc(OC)c(OC)c3OC)n3nnnc3N2)c1 (stereo not given),inactive,
CC1(C)N=C2C(=[N+]1[O-])CCC/C2=N\O,inconclusive: 41.9%,
CCc1nc(NC(C)C)c2oc3ccccc3c2n1,inconclusive: 51.1%,
O=C(c1ccccc1-c1nc(-c2ccccc2)no1)N1CCCC1,inconclusive: 51.2%,
COc1ccc(S(=O)(=O)N(Cc2ccccc2)Cc2nc(-c3ccccc3)no2)cc1,,"inconclusive: 31.6 µM [activator, single point]"
COC(=O)Cc1c(C)nc2nc(NCc3ccc(Cl)cc3)[nH]n2c1=O,inconclusive: 46.6%,
COc1ccc(-c2nnc(SCC(=O)N3CCc4ccccc4C3)o2)cc1,inconclusive: 60.6%,
O=C(CCc1ccc(S(=O)(=O)N2CCOCC2)cc1)Oc1ccccc1,inconclusive: 56.5%,
CCOc1ccc2nc(NS(=O)(=O)c3ccc4c(c3)n(C)c(=O)n4C)sc2c1,inactive,
CN(Cc1ccco1)C(=O)Cn1c(=O)oc2cc(S(=O)(=O)NCc3ccccc3)ccc21,inconclusive: 44.4%,

# Some of these compounds in order of count of non-hydrogen atoms, ascending.
Structure (SMILES),"activity change, negative = inhibition",Potency
c1ccc(OCCSc2nc3ccccc3o2)cc1,,"inconclusive: 31.6 µM [activator, single point]"
COc1cc(C2C(C(=O)OC(C)C)=C(C)Nc3[nH]c(=O)[nH]c(=O)c32)ccc1O (stereo not given),inconclusive: 40.5%,
CN(Cc1ccco1)C(=O)Cn1c(=O)oc2cc(S(=O)(=O)NCc3ccccc3)ccc21,inconclusive: 44.4%,

# Further structures:

Structure (SMILES),"activity change, negative = inhibition",Potency
Cc1cc(C)n(-c2nc3ccccc3nc2N2CCCCCC2)n1,,"inconclusive: 31.6 µM [activator, single point]"
NCCCCCc1nnc(SCC(=O)Nc2cccc(Cl)c2)o1,inactive,
COc1ccc(C2CC(C(F)(F)F)n3nc(C(=O)O)c(Cl)c3N2)cc1OC (stereo not given),inactive,
COCCCNC(=O)c1c(N)n(-c2cccc(S(N)(=O)=O)c2)c2nc3ccccc3nc12,,"inconclusive: 20 µM [activator, single point]"
CN(C)c1ccc(C(c2ccc(N(C)C)cc2)c2ccc([N+](=O)[O-])cc2)cc1,,"inconclusive: 3.98 µM [inhibitor, partial curve]"
CN(C)c1ncc2nc(-c3ccccc3)c(=O)n(C)c2n1,,active: 12.6 µM [activator]
CCSC1=C(C#N)C(c2cccc(Br)c2)CC(=O)N1 (stereo not given),inconclusive: 46.9%,
CCN(C(=O)c1cc2cc3ccc(C)cc3nc2o1)c1ccc(OC)cc1,inactive,
Cc1ccc(S(=O)(=O)N2CCC(C(=O)N3CCC(C(=O)NCc4cccnc4)CC3)CC2)cc1,inconclusive: 49.8%,
COc1cccc(-c2nn(C)c3sc(C(=O)NCc4ccccn4)cc23)c1,inconclusive: 52%,
CC(C)Cn1c2c(c(O)c(C(=O)Nc3nccs3)c1=O)CCCC2,inconclusive: 70.9%,
O=C1C(Cl)=C(Nc2ccc(S(=O)(=O)Nc3ccccn3)cc2)C(=O)c2ccccc21,inactive: -7.61% [at 11 µM],
CN(C)c1ccc(-c2nccc(Nc3ccc(F)cc3)n2)cc1,,"inconclusive: 15.8 µM [inhibitor, partial curve]"
COc1ccccc1-c1nc(C#N)c(N2CCC(Cc3ccccc3)CC2)o1,,"inconclusive: 31.6 µM [inhibitor, single point]"
CCCC[C@@H]1C[C@H]1C(NC(=O)c1ccc(C(F)(F)F)cc1)c1ccc(C(=O)OC)cc1 (stereo not given in full),inconclusive: 81.1%,
CCOC(=O)c1cnc(-n2nc(C)cc2C)nc1N1CC(C)OC(C)C1 (stereo not given),,"inconclusive: 31.6 µM [inhibitor, single point]"
Cc1cc(C)cc(C(=N)c2ccccc2Cc2cccc3ccccc23)c1,inactive: 8.18% [at 11 µM],
COc1ccccc1-c1noc(CCC(=O)Nc2cc(C(F)(F)F)ccc2Cl)n1,inconclusive: 46.2%,
CCOC(=O)c1cc(-c2nnc(-c3cc(OC)c(OC)c(OC)c3)o2)c(C)nc1C,inconclusive: 48%,
N=C(N)c1ccc(N=Nc2c(O)ccc3c2[nH]c2ccccc23)cc1,inconclusive: 9.15% [at 11 µM],
Clc1ccc(Cl)c2sc(N3CCOCC3)nc12,inconclusive: 59%,
CCCC(=O)Nc1nc2ccc(OC)cc2s1,inactive,
CCCn1c(-c2ccc(F)cc2)nc2c(NC3CC4CCC(C3)N4C)nc(C)nc21 (stereo not given),inactive,
CCOC(=O)c1[nH]c(COC(=O)C2CC(=O)N(Cc3ccccc3)C2)c(C(=O)OCC)c1C (stereo not given),inactive,
COc1ccc(Cc2noc(-c3ccc(C)cc3)n2)cc1,,"inconclusive: 25.1 µM [activator, single point]"
